Reference: the supplement of paper PMC12067093, “Discovery and optimisation of a covalent ligand for TRIM25 and its application to targeted protein ubiquitination” (Chemical Science, 2025)
This is one part of the list.

compound: CC1Cc2ccccc2N1C(=O)C1CCCN(C1)C(=O)CCl (mixture of isomers) [TRIM25 ligand 11 (diastereomer mixture)]; assay: probe-labelled cysteine peptide fold change vs DMSO (competition) (log2 fold change); higher = less target engagement (more negative = stronger competition); conditions: 10 µM; THP-1; incubation time: 4 h
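Also: competitive chemoproteomic profiling in live THP-1 cells with an iodoacetamide desthiobiotin (IA-DTB) probe, comparing probe-labelled peptide intensities in compound-treated cells against DMSO-treated controls.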

Question: “SMG1_Q96Q15_3587_SVACSPK (UniProt Q96Q15)” was tested. Which “probe-labelled cysteine peptide fold change” value did it give?
Answer: -0.0485

Question: “SMG8_Q8ND04_611_STGACNCGR (UniProt Q8ND04)” was tested. Which “probe-labelled cysteine peptide fold change” value did it give?
Answer: -0.00939

Question: For “SLFN13_Q68D06_286_LPIVHFCSSKPR (UniProt Q68D06)”, which “probe-labelled cysteine peptide fold change” value is on record?
Answer: 0.037

Question: Which “probe-labelled cysteine peptide fold change” value does the source give for “SLC31A1_O15431_189_AVVVDITEHCH (UniProt O15431)” here?
Answer: -0.00846

Question: Which “probe-labelled cysteine peptide fold change” value does the source give for “SLX4_Q8IY92_786_FGVSELVHLCEQVPIATDSEGKPWEEK (UniProt Q8IY92)” here?
Answer: 0.00222

Question: How did the “probe-labelled cysteine peptide fold change” value turn out when “SMPD2_O60906_189_KADVVLLCGDLNMHPEDLGCCLLK (UniProt O60906)” was run?
Answer: -0.239

Question: How did the “probe-labelled cysteine peptide fold change” value turn out when “SLC27A2_O14975_414_YDVEKDEPVRDENGYCVR (UniProt O14975)” was run?
Answer: -0.0156

Question: For “SNRNP200_O75643_302_TASDDRECENQLVLLLGFNTFDFIK (UniProt O75643)”, which “probe-labelled cysteine peptide fold change” value is on record?
Answer: -0.0898

Question: Which “probe-labelled cysteine peptide fold change” value does the source give for “SMAP2_Q8WU79_196_STAPVMDLLGLDAPVACSIANSK (UniProt Q8WU79)” here?
Answer: -0.199

Question: How did the “probe-labelled cysteine peptide fold change” value turn out when “SMC4_Q9NTJ3_110_FSCIIGPNGSGK (UniProt Q9NTJ3)” was run?
Answer: 0.0672

Question: Which “probe-labelled cysteine peptide fold change” value does the source give for “SLK_Q9H2G2_1138_DLQLQCEANVR (UniProt Q9H2G2)” here?
Answer: -0.0984

Question: How did the “probe-labelled cysteine peptide fold change” value turn out when “SMARCA4_P51532_1046_ICNHPYMFQHIEESFSEHLGFTGGIVQGLDLYR (UniProt P51532)” was run?
Answer: 0.0792

Question: For “SMC2_O95347_326_NLACEESK (UniProt O95347)”, which “probe-labelled cysteine peptide fold change” value is on record?
Answer: -0.0206

Question: Which “probe-labelled cysteine peptide fold change” value does the source give for “SMPD1_P17405_590_GHPPSEPCGTPCR (UniProt P17405)” here?
Answer: 0.266

Question: How did the “probe-labelled cysteine peptide fold change” value turn out when “SMCHD1_A6NHR9_1823_DLLTFPDNVEHCETVFGMLLGDTIILDNLDAANHYR (UniProt A6NHR9)” was run?
Answer: 0.242

Question: Which “probe-labelled cysteine peptide fold change” value does the source give for “SLC3A2_P08195_431_WCSWSLSQAR (UniProt P08195)” here?
Answer: 0.038

Question: For “SMCHD1_A6NHR9_444_ETYPDDPCFPSK (UniProt A6NHR9)”, which “probe-labelled cysteine peptide fold change” value is on record?
Answer: 0.0831

Question: For “SMARCC1_Q92922_520_NLTGDVCAVMR (UniProt Q92922)”, which “probe-labelled cysteine peptide fold change” value is on record?
Answer: 0.0461

Question: “SMYD5_Q6GMV2_378_ENYLFVCSCPK (UniProt Q6GMV2)” was tested. Which “probe-labelled cysteine peptide fold change” value did it give?
Answer: 0.0657

Question: Which “probe-labelled cysteine peptide fold change” value does the source give for “SMN2_Q16637_98_CSAIWSEDGCIYPATIASIDFKR (UniProt Q16637)” here?
Answer: -0.43

Question: “SMARCA2_P51531_1175_LCTVNSVEEK (UniProt P51531)” was tested. Which “probe-labelled cysteine peptide fold change” value did it give?
Answer: 0.0321

Question: How did the “probe-labelled cysteine peptide fold change” value turn out when “SMAD3_P84022_109_AMELCEFAFNMK (UniProt P84022)” was run?
Answer: 0.149

Question: With “SLMAP_Q14BN4_120_KVTHGCIVSTIK (UniProt Q14BN4)” as the target, how does the “probe-labelled cysteine peptide fold change” value read?
Answer: -0.0304

Question: With “SMYD3_Q9H7B4_261+263_DQYCFECDCFR (UniProt Q9H7B4)” as the target, how does the “probe-labelled cysteine peptide fold change” value read?
Answer: 0.0499

Question: How did the “probe-labelled cysteine peptide fold change” value turn out when “SMC6_Q96SB8_1013_CLDEFDVYMDMVNRR (UniProt Q96SB8)” was run?
Answer: -0.007

Question: Which “probe-labelled cysteine peptide fold change” value does the source give for “SLC44A1_Q8WWI5_98_YVFFLDPCNLDLINR (UniProt Q8WWI5)” here?
Answer: -0.0258

Question: “SLC9A1_P19634_794_CLSDPGPHPEPGEGEPFFPK (UniProt P19634)” was tested. Which “probe-labelled cysteine peptide fold change” value did it give?
Answer: 0.0599

Question: “SMC1A_Q14683_613+619_ALQYACGNALVCDNVEDARR (UniProt Q14683)” was tested. Which “probe-labelled cysteine peptide fold change” value did it give?
Answer: -0.173

Question: Which “probe-labelled cysteine peptide fold change” value does the source give for “SMAD4_Q13485_391_GVQLECK (UniProt Q13485)” here?
Answer: 0.0468

Question: For “SMCHD1_A6NHR9_1018_IEIPSCK (UniProt A6NHR9)”, which “probe-labelled cysteine peptide fold change” value is on record?
Answer: -0.00436

Question: How did the “probe-labelled cysteine peptide fold change” value turn out when “SLFN13_Q68D06_631_ILYVCENQPLR (UniProt Q68D06)” was run?
Answer: -0.0271

Question: With “SLC4A1AP_Q9BWU0_399_ALQGFFDREGEELEYEFDEQGHSTWLCR (UniProt Q9BWU0)” as the target, how does the “probe-labelled cysteine peptide fold change” value read?
Answer: 0.0606

Question: For “SMARCA5_O60264_1001_CNTLITLIERENMELEEK (UniProt O60264)”, which “probe-labelled cysteine peptide fold change” value is on record?
Answer: -0.233

Question: With “SLC4A1AP_Q9BWU0_200_LSGCDVCLEHPSVSR (UniProt Q9BWU0)” as the target, how does the “probe-labelled cysteine peptide fold change” value read?
Answer: 0.136

Question: How did the “probe-labelled cysteine peptide fold change” value turn out when “SMARCC1_Q92922_164_TLVQNNCLTRPNIYLIPDIDLK (UniProt Q92922)” was run?
Answer: -0.0295
